PubChem BioAssay AID504444 (National Center for Advancing Translational Sciences (NCATS), 2011)
In all, about 360,000 compounds went through this assay and about 7,500 (2.1%) were called active. Inconclusive results, whose numbers are uncertain, are shown with a selection of clear calls. Calls follow the shape of the dose curve; as a rule, active = well fitted inhibition curve with a large enough effect; inconclusive = small, poorly fitted or top-dose-only effect, or effect the other way; inactive = flat fitted curve, though single readings scatter. Potencies of inconclusive entries are doubtful fits and often do not repeat.
Potency is read from the fitted curve at half-maximal effect.

Assay: Nrf2 qHTS screen for inhibitors; also: nearly all actives have a fitted effect of over 60% in size
Conditions: A549 ARE-Fluc reporter, luciferase luminescence, 18-24 h; series mostly up to 46 µM
In short: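 A549 ARE_Fluc cells (5000/well, 5% FBS OPTI-MEM) pre-incubated 2 h, then treated with compounds 18-24 h at 37C/5% CO2 in concentration-response. CellTiter-Fluor viability read first; BugLite luciferase luminescence after 15 min at room temperature gives Nrf2 activity.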
With `O=[N+]([O-])c1ccc(N2CCN(c3ccc(O)cc3)CC2)c(Cl)c1` the Potency was inconclusive: 29.1 µM [falling, single point]. In the case of `Cc1ccc(NC(c2nnc(-c3ccccc3)o2)c2ccccc2F)c([N+](=O)[O-])c1` (stereo unspecified), the Potency is reported as inconclusive: 29.1 µM [falling, single point]. In the case of `COc1ccc(NC(=O)CN(C)C(=O)Cc2c[nH]c3ccccc23)cc1`, the Potency is reported as inconclusive: 7.31 µM [falling, partial curve]. With `COCc1cc(=O)[nH]c(/N=C(\N)Nc2ccc(Oc3ccccc3)cc2)n1` the Potency was inconclusive: 23.1 µM [falling, single point]. With `Oc1ccc2ccccc2c1C=NNc1ccccn1` the Potency was inconclusive: 25.9 µM [falling, single point]. With `CCNC(=O)/C(C#N)=C/c1c(N2CCN(c3cccc(Cl)c3)CC2)nc2c(C)cccn2c1=O` the Potency was inconclusive: 14.6 µM [falling, partial curve, poor fit]. With `Cc1ccc(S(=O)(=O)Nc2cccc3ccc(C)nc23)cc1` the Potency was inconclusive: 4.11 µM [falling, full curve, poor fit]. For `CCN(c1ccccc1)S(=O)(=O)c1ccc(C(=O)NC2CCN(Cc3ccccc3)CC2)cc1`, the Potency was inconclusive: 2.31 µM [falling, full curve, poor fit]. In the case of `COc1cccc(-c2nnc(-c3ccco3)o2)c1`, the Potency is reported as inconclusive: 2.06 µM [activator, full curve]. In the case of `CCN(CC)c1nc(=S)nc(NC(C)(C)C)[nH]1`, the Potency is reported as inconclusive: 18.4 µM [activator, single point]. For `COc1ccc(S(=O)(=O)Nc2c(NC3CCCCC3)c3ccccc3oc2=O)cc1Cl`, the Potency was inconclusive: 23.1 µM [falling, partial curve, poor fit]. In the case of `CC(C)c1ccccc1-n1c(SCC(=O)c2ccc3c(c2)NC(=O)CO3)nc2ccccc2c1=O`, the Potency is reported as active: 2.91 µM. For `CC1(C)Oc2cc(N)c([N+](=O)[O-])cc2O1`, the Potency was “inactive”. In the case of `COc1cccc(NC(=O)C(NCCc2ccc(S(N)(=O)=O)cc2)c2ccccc2)c1` (stereo unspecified), the Potency is reported as inconclusive: 20.6 µM [falling, partial curve, poor fit]. In the case of `O=C(NCCC1=CCCCC1)c1ccc2c(c1)N(Cc1ccccc1F)C(=O)c1ccccc1S2(=O)=O`, the Potency is reported as “inactive”. For `CCOC(=O)C(C(C)=O)c1c(Br)c(O)c(O)c2c(C(=O)c3ccc(C)cc3)coc12` (stereo unspecified), the Potency was active: 7.31 µM. In the case of `Cc1cc(C)c2c(N)c(C(=O)Nc3ncc(C)s3)sc2n1`, the Potency is reported as inconclusive: 29.1 µM [falling, single point]. For `COc1ccc(OCC(=O)NC2CCCCCCC2)cc1`, the Potency was inconclusive: 29.1 µM [activator, single point]. For `Cc1nc(-c2cccnc2)sc1C(=O)Nc1cccc(C(F)(F)F)c1`, the Potency was inconclusive: 18.4 µM [falling, single point]. For `O=C(CN1c2ccccc2Sc2ccccc21)NNC(=O)Nc1ccc(Cl)c(Cl)c1`, the Potency was inconclusive: 29.1 µM [activator, single point]. With `CC(C)(C)c1ccc(-c2csc(NC(=O)CN3C(=O)NC4(CCCCC4)C3=O)n2)cc1` the Potency was inconclusive: 14.6 µM [falling, partial curve]. With `COc1ccc(/C=C(\NC(=O)c2cccs2)C(=O)Nc2ccc(C)cc2)cc1OC` the Potency was inconclusive: 5.17 µM [activator, single point]. In the case of `O=C(OC1CCCCC1)c1cc2ccccc2oc1=O`, the Potency is reported as “inactive”. In the case of `Cc1cc2nn(-c3cccc4ccccc34)nc2cc1NC(=O)c1cccs1`, the Potency is reported as inconclusive: 9.2 µM [falling, partial curve]. In the case of `O=C(Nc1ccc2c(c1)OCCO2)C1CCN(S(=O)(=O)Cc2ccccc2)CC1`, the Potency is reported as inconclusive: 6.51 µM [falling, partial curve]. In the case of `CC(C)Sc1ncc(Cl)c(C(=O)N(Cc2ccc(F)cc2)C2CCS(=O)(=O)C2)n1` (stereo unspecified), the Potency is reported as “inactive”. With `COC(=O)N[C@@H]1C[C@H]2[C@@H]3CC[C@H]4C[C@@H](OC)CC[C@]4(C)[C@H]3CC[C@@]12C` the Potency was inconclusive: 32.6 µM [falling, single point]. For `c1cc2c(cn1)cnc1cscc12`, the Potency was inconclusive: 25.9 µM [falling, single point]. For `Cn1c(=O)c2c(nc(NCCNC(=O)c3ccco3)n2Cc2ccccc2)n(C)c1=O`, the Potency was inconclusive: 25.9 µM [falling, single point]. With `O=C(COc1ccc(Br)cc1F)NC1CC1` the Potency was inconclusive: 4.61 µM [activator, full curve]. For `CCC(=O)Nc1ccc(-c2csc(NNC(C)=O)n2)cc1`, the Potency was “inactive”. With `C=CCN(c1ccccc1)S(=O)(=O)c1cccc(C(=O)Nc2nnc(SCC)s2)c1` the Potency was inconclusive: 25.9 µM [falling, single point]. With `CC(=O)CSc1ccc(-c2nc3ccccc3[nH]2)cn1` the Potency was inconclusive: 0.58 µM [activator, full curve]. With `Cc1ccc(C(=O)N/N=C2\CCCc3ccccc32)c(C)c1` the Potency was inconclusive: 11.6 µM [activator, partial curve]. In the case of `CCOc1ccc(Br)cc1CSC(=N)N`, the Potency is reported as inconclusive: 2.31 µM [falling, full curve]. With `CCOC(=O)CNC(=O)/C=C/c1ccc2c(c1)OCO2` the Potency was inconclusive: 18.4 µM [activator, single point]. For `O=C(O)C(F)(F)S(=O)(=O)O`, the Potency was “inactive”. For `CCCN(CC(=O)Nc1ccc(F)c(F)c1F)Cc1cc(=O)n2ccsc2n1`, the Potency was inconclusive: 2.91 µM [falling, full curve]. With `COc1ccc(N2CCN(C(=O)NCc3noc4ccccc34)CC2)cc1` the Potency was inconclusive: 2.59 µM [activator, partial curve, poor fit]. For `N#C/C(=C\c1ccc(-c2ccc([N+](=O)[O-])cc2)o1)C(=O)Nc1nc(-c2cccs2)cs1`, the Potency was inconclusive: 11.6 µM [falling, partial curve, poor fit]. For `CC(C)c1nc(NCCO)c(C#N)c2c1CCCC2`, the Potency was inconclusive: 25.9 µM [falling, single point]. With `CCN1CCN(CC(=O)c2ccc(C)cc2)CC1` the Potency was inconclusive: 23.1 µM [activator, single point]. For `O=C(NCc1ccccc1)C1=C[C@@H](c2csc3ccccc23)C[C@@H](OCCCCO)O1`, the Potency was inconclusive: 23.1 µM [falling, single point]. For `Cc1ccc(NC(=S)N2CCC(c3ccccc3)C2)c(Cl)c1` (stereo unspecified), the Potency was inconclusive: 2.06 µM [activator, partial curve]. In the case of `Cc1nnc(SCC(=O)N2CCN(c3ccccc3)CC2)n1-c1ccccc1`, the Potency is reported as “inactive”. In the case of `O=C(CSc1ccc(Cl)cc1)N1CCN(c2ncc(C(F)(F)F)cc2Cl)CC1`, the Potency is reported as active: 20.6 µM. In the case of `CC(=O)Nc1cccc(NC(=O)Nc2ccc(C(C)=O)cc2)c1`, the Potency is reported as “inactive”. In the case of `CC(C)(C)C(=O)Nc1ccc(C(=O)N/N=C/c2ccccc2OC(=O)c2ccc(Cl)cc2)cc1`, the Potency is reported as inconclusive: 20.6 µM [falling, single point]. In the case of `C=CC[C@@H](CC(=O)NCCO)C(=O)N[C@H](COC(=O)[C@H](CC=C)CC(=O)OC(C)(C)C)Cc1c[nH]c2ccccc12`, the Potency is reported as “inactive”. With `CC(C)N(Cc1nnc(-c2ccccc2Br)o1)C(=O)c1cc(Cl)nc2ccccc12` the Potency was inconclusive: 18.4 µM [falling, single point]. For `Cc1c(Nc2cc(Cl)c3nonc3c2[N+](=O)[O-])c(=O)n(-c2ccccc2)n1C`, the Potency was inconclusive: 29.1 µM [falling, single point]. In the case of `CN(C)S(=O)(=O)c1cccc(NC(=S)NC(=O)c2ccco2)c1`, the Potency is reported as inconclusive: 8.2 µM [activator, partial curve]. For `Cc1ccc(/C=N\NC(=O)c2csnn2)cc1`, the Potency was inconclusive: 1.46 µM [activator, full curve]. With `CC(=O)Nc1c(C(=O)Nc2ccc3c(c2)OCO3)oc2ccccc12` the Potency was inconclusive: 20.6 µM [activator, single point]. For `Cc1ccc(C)c2[nH]c(=O)c(CN(Cc3cccs3)C(=S)NCc3ccco3)cc12`, the Potency was “inactive”. In the case of `CCCCNC(=O)CC1N=C2c3ccccc3N=C(SCC(=O)Nc3ccccc3C)N2C1=O` (stereo unspecified), the Potency is reported as inconclusive: 4.61 µM [falling, partial curve, poor fit]. For `Cc1csc(NC(=O)CSc2nnc(-c3ccoc3C)o2)n1`, the Potency was “inactive”. For `O=C1c2cccc3c([N+](=O)[O-])ccc(c23)C(=O)N1c1ccc(Cl)cn1`, the Potency was “inactive”. For `Fc1ccccc1NC(=S)NNc1ncc(C(F)(F)F)cc1Cl`, the Potency was inconclusive: 29.1 µM [falling, single point]. In the case of `COc1ccc(NC(=O)c2cccc(N3C(=O)C4C5C=CC(C5)C4C3=O)c2)cc1Cl` (stereo unspecified), the Potency is reported as inconclusive: 20.6 µM [falling, single point]. With `CCCn1nnc(NC(=O)/C=C/c2ccccc2)n1` the Potency was “inactive”. With `CCOC(=O)N1CCN(C(=O)c2ccc(N(Cc3ccc(Cl)cc3)S(C)(=O)=O)cc2)CC1` the Potency was inconclusive: 14.6 µM [falling, partial curve]. With `O=C(Nc1c(C(=O)Nc2cccc(F)c2)oc2ccccc12)c1cc2ccccc2o1` the Potency was inconclusive: 20.6 µM [falling, single point]. With `CCc1cc2c(NCc3ccco3)ncnc2s1` the Potency was inconclusive: 20.6 µM [falling, partial curve, poor fit]. For `COc1ccc(-c2[nH]ncc2CNCCCSC)cc1F`, the Potency was inconclusive: 29.1 µM [activator, single point]. In the case of `CCCNC(=O)c1ccc(N2CCC3(CC2)CC(c2ccccc2)=NO3)c(NC(=O)c2ccccc2)c1`, the Potency is reported as “inactive”.
